Reference: publication PMC5930937
No constants are given. Whether binding was seen depends on the method and setting. Binding seen in cells or lysates may run through a third protein. Some results given as binding are weak or reduced against the parent protein; the word gives no strength.

Protein sequences, listed by entry. Tags and fused reporters are not part of them. Lines headed by an entry give the natural chain unless they say otherwise; changes in a name come on top. Residues count along the entry.
UniProt O43497: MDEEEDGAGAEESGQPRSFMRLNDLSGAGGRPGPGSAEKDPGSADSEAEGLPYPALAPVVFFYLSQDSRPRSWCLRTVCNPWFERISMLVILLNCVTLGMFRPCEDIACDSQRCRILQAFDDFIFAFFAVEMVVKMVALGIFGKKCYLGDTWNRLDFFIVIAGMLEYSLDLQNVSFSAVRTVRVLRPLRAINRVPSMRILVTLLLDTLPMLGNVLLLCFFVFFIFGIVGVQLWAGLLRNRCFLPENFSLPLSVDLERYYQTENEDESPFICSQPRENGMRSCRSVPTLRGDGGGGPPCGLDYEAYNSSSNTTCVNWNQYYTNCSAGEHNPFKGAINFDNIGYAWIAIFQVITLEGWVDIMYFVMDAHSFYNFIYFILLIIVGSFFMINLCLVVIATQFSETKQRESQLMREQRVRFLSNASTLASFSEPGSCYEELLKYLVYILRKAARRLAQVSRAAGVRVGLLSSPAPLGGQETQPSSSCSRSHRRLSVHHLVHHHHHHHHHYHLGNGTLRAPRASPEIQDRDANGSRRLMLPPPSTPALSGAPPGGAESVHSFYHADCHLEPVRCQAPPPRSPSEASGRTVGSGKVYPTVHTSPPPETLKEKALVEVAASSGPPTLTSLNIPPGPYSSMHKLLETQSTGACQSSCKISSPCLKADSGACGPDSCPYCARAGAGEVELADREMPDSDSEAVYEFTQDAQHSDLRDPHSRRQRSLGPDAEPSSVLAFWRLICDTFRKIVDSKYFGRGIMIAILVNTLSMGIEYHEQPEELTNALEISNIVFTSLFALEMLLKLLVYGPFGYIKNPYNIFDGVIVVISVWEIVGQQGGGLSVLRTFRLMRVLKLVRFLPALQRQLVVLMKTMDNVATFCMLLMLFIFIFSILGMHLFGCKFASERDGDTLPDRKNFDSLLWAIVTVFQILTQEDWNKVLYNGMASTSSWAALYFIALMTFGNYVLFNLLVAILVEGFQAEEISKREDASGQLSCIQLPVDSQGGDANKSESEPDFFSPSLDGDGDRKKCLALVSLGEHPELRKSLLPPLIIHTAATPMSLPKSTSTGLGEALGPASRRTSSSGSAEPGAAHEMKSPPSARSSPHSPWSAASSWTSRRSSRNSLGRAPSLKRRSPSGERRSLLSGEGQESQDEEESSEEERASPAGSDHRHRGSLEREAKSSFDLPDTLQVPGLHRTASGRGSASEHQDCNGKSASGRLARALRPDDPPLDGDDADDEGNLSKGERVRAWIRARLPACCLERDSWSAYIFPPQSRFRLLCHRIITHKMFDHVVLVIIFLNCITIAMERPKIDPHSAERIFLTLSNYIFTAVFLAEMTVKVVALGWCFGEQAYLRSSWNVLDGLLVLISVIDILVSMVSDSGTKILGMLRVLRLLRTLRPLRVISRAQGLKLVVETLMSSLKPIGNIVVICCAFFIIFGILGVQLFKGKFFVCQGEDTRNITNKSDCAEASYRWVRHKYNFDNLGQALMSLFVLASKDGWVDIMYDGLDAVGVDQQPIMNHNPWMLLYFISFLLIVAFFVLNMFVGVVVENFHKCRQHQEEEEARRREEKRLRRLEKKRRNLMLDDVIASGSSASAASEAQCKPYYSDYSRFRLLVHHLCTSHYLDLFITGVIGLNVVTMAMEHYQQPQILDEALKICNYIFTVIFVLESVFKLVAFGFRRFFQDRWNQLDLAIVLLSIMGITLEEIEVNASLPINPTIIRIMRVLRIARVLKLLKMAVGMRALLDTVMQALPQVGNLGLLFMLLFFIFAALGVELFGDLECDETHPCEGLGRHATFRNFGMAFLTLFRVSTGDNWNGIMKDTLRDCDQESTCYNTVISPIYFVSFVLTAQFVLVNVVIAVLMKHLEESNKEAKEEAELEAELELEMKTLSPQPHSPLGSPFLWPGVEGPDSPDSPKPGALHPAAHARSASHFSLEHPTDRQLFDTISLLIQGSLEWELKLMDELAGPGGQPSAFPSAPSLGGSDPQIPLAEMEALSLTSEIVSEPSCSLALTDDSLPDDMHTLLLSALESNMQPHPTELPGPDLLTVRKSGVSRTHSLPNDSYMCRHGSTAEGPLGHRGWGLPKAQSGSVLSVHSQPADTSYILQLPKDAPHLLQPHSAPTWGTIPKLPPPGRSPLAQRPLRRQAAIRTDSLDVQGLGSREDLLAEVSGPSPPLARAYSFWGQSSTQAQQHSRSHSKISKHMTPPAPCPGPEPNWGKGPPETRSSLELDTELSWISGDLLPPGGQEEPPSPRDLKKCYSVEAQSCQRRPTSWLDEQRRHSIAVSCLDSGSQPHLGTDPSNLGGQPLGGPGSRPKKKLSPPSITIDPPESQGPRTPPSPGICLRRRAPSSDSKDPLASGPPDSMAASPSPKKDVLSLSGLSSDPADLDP
Cav3.1-GFP ∆CT (1875–2377): residues 1-1874 of O43497
UniProt Q01484: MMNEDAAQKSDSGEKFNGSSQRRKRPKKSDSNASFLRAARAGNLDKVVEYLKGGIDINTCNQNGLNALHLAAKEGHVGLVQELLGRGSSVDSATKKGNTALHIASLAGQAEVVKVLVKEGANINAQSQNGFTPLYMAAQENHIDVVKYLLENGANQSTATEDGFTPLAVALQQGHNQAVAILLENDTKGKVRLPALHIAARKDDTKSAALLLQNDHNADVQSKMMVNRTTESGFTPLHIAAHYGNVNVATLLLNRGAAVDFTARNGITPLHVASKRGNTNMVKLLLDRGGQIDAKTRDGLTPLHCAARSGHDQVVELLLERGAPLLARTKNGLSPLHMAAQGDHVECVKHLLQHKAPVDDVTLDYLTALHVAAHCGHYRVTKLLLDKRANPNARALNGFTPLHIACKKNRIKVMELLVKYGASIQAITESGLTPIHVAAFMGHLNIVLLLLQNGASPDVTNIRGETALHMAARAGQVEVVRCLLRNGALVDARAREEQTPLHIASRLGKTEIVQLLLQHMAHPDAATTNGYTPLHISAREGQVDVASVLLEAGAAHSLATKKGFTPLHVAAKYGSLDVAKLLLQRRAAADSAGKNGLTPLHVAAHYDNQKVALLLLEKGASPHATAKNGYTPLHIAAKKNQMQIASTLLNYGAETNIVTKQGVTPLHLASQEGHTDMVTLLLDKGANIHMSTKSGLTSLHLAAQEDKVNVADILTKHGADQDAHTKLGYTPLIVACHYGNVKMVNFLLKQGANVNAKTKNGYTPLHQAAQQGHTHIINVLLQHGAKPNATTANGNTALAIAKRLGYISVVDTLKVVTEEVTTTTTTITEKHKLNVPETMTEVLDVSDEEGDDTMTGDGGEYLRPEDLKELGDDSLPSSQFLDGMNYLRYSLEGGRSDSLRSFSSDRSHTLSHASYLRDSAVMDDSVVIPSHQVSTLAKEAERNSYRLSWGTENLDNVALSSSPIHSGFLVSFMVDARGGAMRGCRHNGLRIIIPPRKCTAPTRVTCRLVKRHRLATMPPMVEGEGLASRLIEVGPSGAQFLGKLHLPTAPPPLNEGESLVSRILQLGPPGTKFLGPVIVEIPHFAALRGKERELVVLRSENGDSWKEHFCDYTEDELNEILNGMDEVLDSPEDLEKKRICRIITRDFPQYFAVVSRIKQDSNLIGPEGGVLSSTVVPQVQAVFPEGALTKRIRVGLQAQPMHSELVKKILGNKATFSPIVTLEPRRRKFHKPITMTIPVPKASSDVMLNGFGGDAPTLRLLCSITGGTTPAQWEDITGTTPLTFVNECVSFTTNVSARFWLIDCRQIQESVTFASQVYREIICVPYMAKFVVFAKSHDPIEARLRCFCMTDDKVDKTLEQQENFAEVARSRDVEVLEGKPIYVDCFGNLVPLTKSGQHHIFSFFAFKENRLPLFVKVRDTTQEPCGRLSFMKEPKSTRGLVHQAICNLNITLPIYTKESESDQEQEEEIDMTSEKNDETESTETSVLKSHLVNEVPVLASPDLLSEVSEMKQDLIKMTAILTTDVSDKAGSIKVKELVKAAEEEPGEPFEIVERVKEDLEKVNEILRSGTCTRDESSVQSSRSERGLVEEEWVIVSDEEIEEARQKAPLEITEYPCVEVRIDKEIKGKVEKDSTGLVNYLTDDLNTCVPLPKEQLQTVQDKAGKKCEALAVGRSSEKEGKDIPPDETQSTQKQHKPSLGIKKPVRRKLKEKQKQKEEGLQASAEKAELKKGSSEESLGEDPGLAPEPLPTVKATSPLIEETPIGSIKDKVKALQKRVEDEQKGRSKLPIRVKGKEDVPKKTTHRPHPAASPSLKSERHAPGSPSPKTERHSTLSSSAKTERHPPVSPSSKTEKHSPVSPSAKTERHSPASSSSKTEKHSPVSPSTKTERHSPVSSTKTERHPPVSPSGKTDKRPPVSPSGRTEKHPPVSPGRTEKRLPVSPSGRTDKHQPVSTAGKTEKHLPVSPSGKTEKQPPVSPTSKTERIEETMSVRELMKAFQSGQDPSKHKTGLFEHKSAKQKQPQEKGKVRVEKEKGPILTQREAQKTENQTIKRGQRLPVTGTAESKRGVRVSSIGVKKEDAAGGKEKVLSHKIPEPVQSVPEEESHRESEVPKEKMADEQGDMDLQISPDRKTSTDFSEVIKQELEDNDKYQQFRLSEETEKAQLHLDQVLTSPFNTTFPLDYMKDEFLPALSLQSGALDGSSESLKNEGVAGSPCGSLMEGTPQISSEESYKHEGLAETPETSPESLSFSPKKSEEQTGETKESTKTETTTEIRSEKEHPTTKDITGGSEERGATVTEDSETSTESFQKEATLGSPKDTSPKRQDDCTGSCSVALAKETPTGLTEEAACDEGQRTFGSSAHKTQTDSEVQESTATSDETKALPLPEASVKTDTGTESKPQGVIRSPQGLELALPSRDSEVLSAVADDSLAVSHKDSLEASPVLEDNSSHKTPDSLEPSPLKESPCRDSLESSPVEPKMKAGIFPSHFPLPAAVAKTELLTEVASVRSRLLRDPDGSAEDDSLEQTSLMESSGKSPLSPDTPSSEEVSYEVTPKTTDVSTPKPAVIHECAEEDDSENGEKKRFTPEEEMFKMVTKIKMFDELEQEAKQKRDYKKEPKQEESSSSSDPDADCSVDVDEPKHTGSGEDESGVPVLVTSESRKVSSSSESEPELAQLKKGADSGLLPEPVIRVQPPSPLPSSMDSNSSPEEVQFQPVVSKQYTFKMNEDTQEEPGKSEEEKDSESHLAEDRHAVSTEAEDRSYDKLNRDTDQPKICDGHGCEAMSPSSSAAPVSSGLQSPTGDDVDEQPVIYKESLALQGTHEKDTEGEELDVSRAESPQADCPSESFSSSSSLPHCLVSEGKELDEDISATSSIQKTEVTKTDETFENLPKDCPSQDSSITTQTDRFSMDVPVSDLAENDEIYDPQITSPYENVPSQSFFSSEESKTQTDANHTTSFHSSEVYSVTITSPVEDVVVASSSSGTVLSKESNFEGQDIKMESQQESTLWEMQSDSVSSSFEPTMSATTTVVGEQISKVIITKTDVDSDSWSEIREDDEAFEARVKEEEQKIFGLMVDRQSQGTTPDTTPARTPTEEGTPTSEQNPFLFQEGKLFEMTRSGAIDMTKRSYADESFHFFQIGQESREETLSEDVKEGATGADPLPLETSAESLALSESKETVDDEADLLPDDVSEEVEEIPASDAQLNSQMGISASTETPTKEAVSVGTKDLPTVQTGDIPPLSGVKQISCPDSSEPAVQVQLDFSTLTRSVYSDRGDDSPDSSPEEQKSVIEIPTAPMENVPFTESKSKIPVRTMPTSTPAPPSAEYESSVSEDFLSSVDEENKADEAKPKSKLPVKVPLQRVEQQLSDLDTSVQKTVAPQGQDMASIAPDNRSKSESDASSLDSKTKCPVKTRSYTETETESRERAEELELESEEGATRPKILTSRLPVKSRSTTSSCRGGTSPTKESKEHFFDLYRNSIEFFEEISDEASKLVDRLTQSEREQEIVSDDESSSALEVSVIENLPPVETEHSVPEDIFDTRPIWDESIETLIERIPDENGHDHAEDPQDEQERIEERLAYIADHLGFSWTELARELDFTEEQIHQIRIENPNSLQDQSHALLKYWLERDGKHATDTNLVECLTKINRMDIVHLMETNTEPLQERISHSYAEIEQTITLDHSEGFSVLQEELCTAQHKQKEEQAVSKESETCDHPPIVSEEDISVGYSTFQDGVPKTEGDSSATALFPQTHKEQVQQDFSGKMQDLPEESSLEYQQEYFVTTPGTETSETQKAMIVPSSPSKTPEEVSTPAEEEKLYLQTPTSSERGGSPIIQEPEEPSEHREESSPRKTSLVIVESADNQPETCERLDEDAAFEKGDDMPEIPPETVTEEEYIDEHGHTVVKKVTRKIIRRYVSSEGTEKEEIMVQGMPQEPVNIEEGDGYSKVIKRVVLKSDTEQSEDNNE

Experiments:
[1] = target: Cav3.1-GFP wild type (human) (UniProt O43497); experiment: co-IP; anti-GFP immunoprecipitates of GFP-tagged channels expressed in tsA-201 cells (modified RIPA buffer, Protein G/A beads, overnight 4 °C) probed for endogenous spectrins or ankyrin B by Western blot
[2] = target: Cav3.1-GFP ∆CT (1851–1875) (human) (UniProt O43497); experiment: as above
[3] = target: Cav3.2-GFP wild type (human) (UniProt O95180); experiment: as above
[4] = target: Cav3.2-GFP ∆CT (1860–1884) (human) (UniProt O95180); experiment: as above
[5] = target: Cav3.1-GFP ∆CT (1875–2377) (human) (UniProt O43497); experiment: as above
[6] = target: Cav3.2 T-type calcium channel, mouse brain (mouse (endogenous in whole brain)) (UniProt O88427); experiment: co-IP; Cav3.1 or Cav3.2 immunoprecipitates from mouse whole brain lysates (modified RIPA buffer, Protein G/A beads, overnight 4 °C) probed for SPTAN1 by Western blot

| binding [1] | binding [2] | binding [3] | binding [4] | binding [5] | binding [6] | Substance |
| --- | --- | --- | --- | --- | --- | --- |
| binds | binds | binds | binds |  |  | ankyrin B, tsA-201 cells (from UniProt Q01484 1-3957) |
| binds | binds | binds | binds | binds |  | spectrin αII (SPTAN1), tsA-201 cells (from UniProt Q13813 1-2472) |
|  |  |  |  |  | binds | spectrin-αII (SPTAN1), mouse brain (from UniProt P16546 1-2472) |
